This passage reports log2 fold change results from the supplement of paper PMC10849652.

Sequences of proteins named here, by UniProt entry; tags and fusion partners are left off. A change or cut given only in a name is not applied to a line headed by its entry.
UniProt Q15436: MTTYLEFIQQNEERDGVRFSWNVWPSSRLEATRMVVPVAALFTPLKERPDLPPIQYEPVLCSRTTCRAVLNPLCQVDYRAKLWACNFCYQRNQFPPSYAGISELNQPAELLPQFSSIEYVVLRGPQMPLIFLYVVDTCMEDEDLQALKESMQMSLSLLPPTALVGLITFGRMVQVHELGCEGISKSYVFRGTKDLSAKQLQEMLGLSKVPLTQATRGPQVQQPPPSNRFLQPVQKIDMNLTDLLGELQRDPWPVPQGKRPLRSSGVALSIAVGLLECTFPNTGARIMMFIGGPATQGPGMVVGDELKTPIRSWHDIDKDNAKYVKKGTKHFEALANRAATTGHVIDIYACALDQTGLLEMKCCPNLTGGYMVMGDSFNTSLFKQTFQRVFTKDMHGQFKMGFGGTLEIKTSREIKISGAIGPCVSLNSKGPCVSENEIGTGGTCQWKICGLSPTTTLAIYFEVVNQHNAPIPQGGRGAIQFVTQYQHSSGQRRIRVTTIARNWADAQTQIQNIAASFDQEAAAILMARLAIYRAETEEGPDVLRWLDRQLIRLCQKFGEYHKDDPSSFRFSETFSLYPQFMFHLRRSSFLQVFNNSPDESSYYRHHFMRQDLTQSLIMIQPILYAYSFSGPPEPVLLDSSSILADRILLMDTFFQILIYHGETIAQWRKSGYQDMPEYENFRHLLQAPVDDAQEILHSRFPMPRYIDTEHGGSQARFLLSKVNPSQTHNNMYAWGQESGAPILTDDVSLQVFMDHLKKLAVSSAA
UniProt Q9BQE4, whole entry, looked up: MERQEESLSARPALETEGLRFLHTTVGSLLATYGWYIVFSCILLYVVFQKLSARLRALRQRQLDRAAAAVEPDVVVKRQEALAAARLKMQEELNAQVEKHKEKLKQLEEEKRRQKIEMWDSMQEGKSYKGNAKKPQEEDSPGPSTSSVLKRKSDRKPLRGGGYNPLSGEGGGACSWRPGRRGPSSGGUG
UniProt Q8WVM8, whole entry, looked up: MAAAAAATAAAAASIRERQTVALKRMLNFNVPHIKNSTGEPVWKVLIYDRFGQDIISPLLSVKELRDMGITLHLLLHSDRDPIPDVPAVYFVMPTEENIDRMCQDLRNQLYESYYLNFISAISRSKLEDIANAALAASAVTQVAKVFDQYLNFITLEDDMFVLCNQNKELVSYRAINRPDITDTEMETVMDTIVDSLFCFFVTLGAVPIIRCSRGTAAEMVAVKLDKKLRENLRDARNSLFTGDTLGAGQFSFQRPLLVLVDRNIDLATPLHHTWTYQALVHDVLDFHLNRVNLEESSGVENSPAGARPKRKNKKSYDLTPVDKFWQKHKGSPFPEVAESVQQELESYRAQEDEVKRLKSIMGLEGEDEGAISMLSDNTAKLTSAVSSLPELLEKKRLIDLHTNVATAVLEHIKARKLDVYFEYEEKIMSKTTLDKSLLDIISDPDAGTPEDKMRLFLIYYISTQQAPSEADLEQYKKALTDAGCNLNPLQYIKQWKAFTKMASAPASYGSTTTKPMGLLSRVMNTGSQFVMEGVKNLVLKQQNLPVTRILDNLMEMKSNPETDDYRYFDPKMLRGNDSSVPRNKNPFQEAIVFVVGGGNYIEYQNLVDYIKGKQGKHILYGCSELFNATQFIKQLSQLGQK
UniProt Q13228: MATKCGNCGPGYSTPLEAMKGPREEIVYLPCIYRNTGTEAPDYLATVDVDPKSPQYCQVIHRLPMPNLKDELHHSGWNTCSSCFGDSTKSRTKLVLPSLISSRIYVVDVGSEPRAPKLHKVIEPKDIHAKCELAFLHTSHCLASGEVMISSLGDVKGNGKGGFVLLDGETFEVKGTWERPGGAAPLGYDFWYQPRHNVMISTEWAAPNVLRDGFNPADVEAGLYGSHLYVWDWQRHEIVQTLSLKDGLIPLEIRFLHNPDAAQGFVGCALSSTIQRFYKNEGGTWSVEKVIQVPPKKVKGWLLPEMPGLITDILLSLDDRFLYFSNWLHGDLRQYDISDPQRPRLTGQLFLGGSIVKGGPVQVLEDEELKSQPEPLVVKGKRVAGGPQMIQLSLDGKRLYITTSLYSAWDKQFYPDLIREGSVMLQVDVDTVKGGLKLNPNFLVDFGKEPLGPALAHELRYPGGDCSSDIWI
UniProt P61619, whole entry, looked up: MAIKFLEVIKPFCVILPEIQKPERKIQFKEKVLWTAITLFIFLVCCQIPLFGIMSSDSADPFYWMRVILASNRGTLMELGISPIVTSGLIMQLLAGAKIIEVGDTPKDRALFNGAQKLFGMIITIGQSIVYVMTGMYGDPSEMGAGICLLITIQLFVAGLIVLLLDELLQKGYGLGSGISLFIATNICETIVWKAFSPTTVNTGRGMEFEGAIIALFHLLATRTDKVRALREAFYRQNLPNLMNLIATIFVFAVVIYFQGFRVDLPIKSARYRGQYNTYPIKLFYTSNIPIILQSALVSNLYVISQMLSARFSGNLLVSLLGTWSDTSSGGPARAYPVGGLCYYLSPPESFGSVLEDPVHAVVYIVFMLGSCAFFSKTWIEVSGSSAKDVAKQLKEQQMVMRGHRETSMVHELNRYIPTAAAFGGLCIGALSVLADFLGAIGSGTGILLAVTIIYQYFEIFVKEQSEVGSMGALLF
UniProt P53992: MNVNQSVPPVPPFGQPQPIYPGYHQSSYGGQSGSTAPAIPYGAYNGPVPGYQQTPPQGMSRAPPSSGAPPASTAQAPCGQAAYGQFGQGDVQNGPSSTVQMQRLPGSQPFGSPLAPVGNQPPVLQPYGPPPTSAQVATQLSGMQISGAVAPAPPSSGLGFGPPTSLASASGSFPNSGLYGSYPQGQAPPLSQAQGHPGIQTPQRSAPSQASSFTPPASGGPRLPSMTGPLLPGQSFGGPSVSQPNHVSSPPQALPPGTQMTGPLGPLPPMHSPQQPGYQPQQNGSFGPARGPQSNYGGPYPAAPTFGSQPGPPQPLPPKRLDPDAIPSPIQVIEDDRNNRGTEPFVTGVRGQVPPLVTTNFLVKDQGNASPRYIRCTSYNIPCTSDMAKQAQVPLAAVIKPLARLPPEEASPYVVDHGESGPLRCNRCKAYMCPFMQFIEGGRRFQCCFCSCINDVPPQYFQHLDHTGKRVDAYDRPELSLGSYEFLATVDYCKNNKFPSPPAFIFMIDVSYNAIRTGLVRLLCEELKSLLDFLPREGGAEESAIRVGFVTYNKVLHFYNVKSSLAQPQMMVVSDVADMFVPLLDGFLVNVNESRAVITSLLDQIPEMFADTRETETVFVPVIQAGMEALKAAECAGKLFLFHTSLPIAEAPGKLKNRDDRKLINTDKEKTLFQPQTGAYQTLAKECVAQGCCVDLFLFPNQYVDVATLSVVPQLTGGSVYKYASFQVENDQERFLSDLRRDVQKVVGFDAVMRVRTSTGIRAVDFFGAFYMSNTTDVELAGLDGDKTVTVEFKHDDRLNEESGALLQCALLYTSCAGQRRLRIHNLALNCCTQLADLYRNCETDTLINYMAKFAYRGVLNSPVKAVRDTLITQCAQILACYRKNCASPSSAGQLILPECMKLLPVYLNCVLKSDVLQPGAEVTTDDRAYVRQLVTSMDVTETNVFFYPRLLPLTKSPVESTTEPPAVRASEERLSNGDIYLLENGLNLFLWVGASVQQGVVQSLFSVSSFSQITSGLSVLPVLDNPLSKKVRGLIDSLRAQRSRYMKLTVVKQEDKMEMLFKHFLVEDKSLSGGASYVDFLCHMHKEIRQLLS
UniProt Q9UHR5: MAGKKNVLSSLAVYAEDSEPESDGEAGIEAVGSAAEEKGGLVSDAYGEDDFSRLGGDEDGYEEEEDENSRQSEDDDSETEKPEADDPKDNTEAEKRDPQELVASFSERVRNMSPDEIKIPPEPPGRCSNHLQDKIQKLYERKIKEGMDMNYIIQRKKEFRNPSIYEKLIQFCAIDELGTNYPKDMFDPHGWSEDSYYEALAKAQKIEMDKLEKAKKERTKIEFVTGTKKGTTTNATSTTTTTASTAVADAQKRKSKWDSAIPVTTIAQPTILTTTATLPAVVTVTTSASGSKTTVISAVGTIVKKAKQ
UniProt Q0VDG4: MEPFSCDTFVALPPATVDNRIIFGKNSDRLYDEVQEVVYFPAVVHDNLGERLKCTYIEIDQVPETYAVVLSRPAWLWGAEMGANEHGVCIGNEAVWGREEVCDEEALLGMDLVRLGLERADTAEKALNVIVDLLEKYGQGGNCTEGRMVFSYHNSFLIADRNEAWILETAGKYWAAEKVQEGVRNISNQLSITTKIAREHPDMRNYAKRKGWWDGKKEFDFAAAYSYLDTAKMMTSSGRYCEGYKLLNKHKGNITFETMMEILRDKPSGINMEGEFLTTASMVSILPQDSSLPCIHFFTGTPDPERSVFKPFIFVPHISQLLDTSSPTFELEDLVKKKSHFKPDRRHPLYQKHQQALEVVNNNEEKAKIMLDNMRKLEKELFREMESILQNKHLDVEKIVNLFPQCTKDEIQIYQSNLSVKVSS
UniProt Q96ER3: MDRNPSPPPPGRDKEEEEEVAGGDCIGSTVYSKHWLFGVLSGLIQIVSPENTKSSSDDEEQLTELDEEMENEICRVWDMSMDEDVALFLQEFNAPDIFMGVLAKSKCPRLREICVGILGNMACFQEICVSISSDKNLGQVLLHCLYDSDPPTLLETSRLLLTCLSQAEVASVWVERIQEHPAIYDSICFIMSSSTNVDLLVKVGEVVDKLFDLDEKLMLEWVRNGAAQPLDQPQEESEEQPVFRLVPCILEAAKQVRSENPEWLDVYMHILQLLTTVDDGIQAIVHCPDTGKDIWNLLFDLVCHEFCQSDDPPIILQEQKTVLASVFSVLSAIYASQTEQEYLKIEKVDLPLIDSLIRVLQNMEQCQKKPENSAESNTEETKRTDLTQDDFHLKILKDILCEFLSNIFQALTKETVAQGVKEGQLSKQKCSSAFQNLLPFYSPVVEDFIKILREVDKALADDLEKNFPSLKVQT
UniProt Q15019: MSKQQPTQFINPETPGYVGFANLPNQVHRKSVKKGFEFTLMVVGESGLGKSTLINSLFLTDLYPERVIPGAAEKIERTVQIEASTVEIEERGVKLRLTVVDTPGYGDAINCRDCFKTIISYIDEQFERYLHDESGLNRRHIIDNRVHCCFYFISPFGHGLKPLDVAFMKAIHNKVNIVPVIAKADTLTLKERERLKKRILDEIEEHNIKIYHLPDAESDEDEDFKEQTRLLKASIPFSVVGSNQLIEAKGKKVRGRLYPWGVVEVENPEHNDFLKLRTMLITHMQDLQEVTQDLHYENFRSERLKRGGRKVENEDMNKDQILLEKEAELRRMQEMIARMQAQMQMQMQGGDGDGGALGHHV
UniProt Q96NL6: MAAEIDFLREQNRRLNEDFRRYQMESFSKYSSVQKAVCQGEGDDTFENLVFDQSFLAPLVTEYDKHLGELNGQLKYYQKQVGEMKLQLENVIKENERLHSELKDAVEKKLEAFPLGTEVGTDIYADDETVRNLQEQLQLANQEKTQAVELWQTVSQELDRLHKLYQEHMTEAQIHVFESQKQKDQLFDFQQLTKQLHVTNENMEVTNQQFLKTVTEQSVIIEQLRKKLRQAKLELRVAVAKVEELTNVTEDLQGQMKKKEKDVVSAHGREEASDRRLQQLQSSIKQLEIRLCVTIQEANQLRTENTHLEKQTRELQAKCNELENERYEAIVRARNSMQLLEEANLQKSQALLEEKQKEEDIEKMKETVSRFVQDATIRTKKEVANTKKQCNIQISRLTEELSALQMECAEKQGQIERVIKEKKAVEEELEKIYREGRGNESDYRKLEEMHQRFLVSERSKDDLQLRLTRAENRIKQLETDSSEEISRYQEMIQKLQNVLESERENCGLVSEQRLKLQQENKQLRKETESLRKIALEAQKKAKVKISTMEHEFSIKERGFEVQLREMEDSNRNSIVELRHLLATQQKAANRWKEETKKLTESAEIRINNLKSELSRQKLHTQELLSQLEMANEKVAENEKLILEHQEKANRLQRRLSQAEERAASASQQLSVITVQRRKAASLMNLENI
UniProt Q9UQR0: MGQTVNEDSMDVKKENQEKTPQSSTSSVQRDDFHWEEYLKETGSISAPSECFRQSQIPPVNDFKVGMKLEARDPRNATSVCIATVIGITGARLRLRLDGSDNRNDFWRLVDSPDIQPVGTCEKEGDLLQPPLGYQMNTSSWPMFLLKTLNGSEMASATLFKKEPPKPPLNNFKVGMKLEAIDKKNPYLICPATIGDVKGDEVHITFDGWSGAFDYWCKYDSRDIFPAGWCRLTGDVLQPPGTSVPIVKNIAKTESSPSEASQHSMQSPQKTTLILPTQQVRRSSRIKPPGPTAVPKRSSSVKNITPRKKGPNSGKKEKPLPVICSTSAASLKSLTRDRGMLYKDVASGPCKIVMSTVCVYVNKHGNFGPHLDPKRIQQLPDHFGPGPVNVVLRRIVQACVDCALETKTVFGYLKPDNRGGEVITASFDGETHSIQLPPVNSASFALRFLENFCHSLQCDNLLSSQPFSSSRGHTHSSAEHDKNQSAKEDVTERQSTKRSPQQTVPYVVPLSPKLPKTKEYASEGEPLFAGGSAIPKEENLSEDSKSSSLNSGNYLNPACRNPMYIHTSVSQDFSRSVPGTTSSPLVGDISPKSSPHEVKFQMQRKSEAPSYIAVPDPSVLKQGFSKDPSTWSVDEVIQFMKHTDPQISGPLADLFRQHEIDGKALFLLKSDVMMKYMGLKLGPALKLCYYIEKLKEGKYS

This is one part of the list.

Compound in this assay: C1CN(CCC1(CC2=CC=C(C=C2)Cl)N)C3=NC=NC4=C3C=CN4
As to the kind of experiment: log2 fold change, soluble protein after heating vs DMSO (PISA); higher = thermal stabilisation; K562 lysate, 10 uM; active = over 0.2 and 3.5 SD of the protein, either way, in both replicates (recomputed). The essentials: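 K562 pellets were dounce-homogenised in PBS pH 7.4 containing 1 mM MgCl2, and the crude extract, at 1 mg/mL protein, was exposed to 10 μM compound for 30 min. Aliquots were heated for 3 min across 48°C-58°C, pooled, brought to 0.5% NP-40 at 4°C and spun at 21,000xg for 90 min, with the supernatant taken as soluble protein. TMTpro 16plex LC-MS/MS with equalised channel sums quantified that protein. Values are log-two fold changes in thermal stability relative to solvent controls, taken from duplicates.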
Take SCRIB (UniProt Q14160): the log2 fold change was inactive: 0.01.

As to SEC23A (UniProt Q15436), the log2 fold change was inactive: -0.01.

For the target SEPTIN9 (UniProt Q9UHD8), the log2 fold change was inactive: -0.01.

For the target SEMA4B (UniProt Q9NPR2), the log2 fold change was inactive: 0.013.

As to SDF4 (UniProt Q9BRK5), the log2 fold change is inactive: 0.033.

With SELENOS (UniProt Q9BQE4), the log2 fold change is inactive: 0.031.

With SCFD1 (UniProt Q8WVM8), the log2 fold change is inactive: 0.018.

For SEC24D isoform 2 (UniProt O94855), the log2 fold change is inactive: 0.004.

Regarding SELENBP1 isoform 4 (UniProt Q13228), the log2 fold change is inactive: 0.02.

Take SEC61A1 (UniProt P61619): the log2 fold change was inactive: 0.017.

As for SEC24C (UniProt P53992), the log2 fold change is inactive: 0.008.

Regarding SAP30BP (UniProt Q9UHR5), the log2 fold change was inactive: -0.025.

SCRN3 (UniProt Q0VDG4): the log2 fold change is inactive: 0.027.

Consider SDSL (UniProt Q96GA7), for which the log2 fold change is inactive: -0.04.

In the case of SEC63 (UniProt Q9UGP8), the log2 fold change is inactive: 0.022.

With SARG (UniProt Q9BW04), the log2 fold change is inactive: 0.007.

In the case of SAAL1 (UniProt Q96ER3), the log2 fold change is inactive: -0.004.

As to SAR1B (UniProt Q9Y6B6), the log2 fold change was inactive: 0.025.

As for SAMSN1 (UniProt Q9NSI8), the log2 fold change was inactive: -0.009.

For SDCCAG8 (UniProt Q86SQ7), the log2 fold change was inactive: 0.049.

On to SCYL1 (UniProt Q96KG9), for which the log2 fold change is inactive: -0.052.

As for SDAD1 (UniProt Q9NVU7), the log2 fold change is inactive: -0.003.

With SEPTIN2 isoform 2 (UniProt Q15019), the log2 fold change is inactive: 0.004.

SCAMP3 isoform 2 (UniProt O14828): the log2 fold change is inactive: -0.31.

Regarding SELENOF (UniProt O60613), the log2 fold change was inactive: 0.038.

For SASS6 (UniProt Q6UVJ0), the log2 fold change is inactive: 0.

Turning to SCFD2 (UniProt Q8WU76), the log2 fold change is inactive: 0.049.

SEPTIN11 isoform 2 (UniProt Q9NVA2): the log2 fold change was inactive: 0.014.

For the target SCLT1 (UniProt Q96NL6), the log2 fold change is inactive: 0.174.

SCARB1 isoform 2 (UniProt Q8WTV0): the log2 fold change is inactive: 0.012.

For the target SENP5 (UniProt Q96HI0), the log2 fold change is inactive: -0.134.

In the case of SDHB (UniProt P21912), the log2 fold change was inactive: 0.011.

Turning to SCML2 (UniProt Q9UQR0), the log2 fold change was inactive: 0.043.
